# Library screening results

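Whole-cell assay for inhibitors of Mycobacterium tuberculosis growth, labelled Cornell in the record; the read-out is not stated. The concentration is filed as 10 mM, unlikely as a test dose, so the dose is not known. The record gives no direction; compounds strong in two other growth screens of this library score well above the rest, so higher reads as stronger inhibition. About 53,000 compounds were tested under these conditions; 1.7% (about 900) showed 50% or more at least once.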

Results are given as percent effect. How 0% and 100% were set is not recorded. Most values in the screen are low, and negative values occur. This is an unselected part of the compounds tested.

SMILES	Percent Effect
CN(C)CC(Nc1nc(N)nc2c1CCNCC2)c1ccccc1 (stereo not shown)	-0.03804
Cn1ncc2c1CN(Cc1cccnc1)CC2COCC1CC1.O=C(O)C(F)(F)F.O=C(O)C(F)(F)F.O=C(O)C(F)(F)F (stereo not shown)	21.27
CC(=O)c1cccc(S(=O)(=O)N2CCC(c3noc(C)n3)CC2)c1	21.16
[H][C@]12CCC(=O)N(C)[C@@]1(C)CCCCN2C(=O)CCc1cccnc1	9.799
Cc1nc(C2CCN(C(=O)c3cscn3)CC2)c2sccn12	-33.29
CNc1ccc(Cl)cc1C(=O)N1CCC(Cn2cc(CN)nn2)CC1	22.65
Cc1ccc(F)c2c1CCCN2C(=O)c1cn(CC(=O)N(C)C)nn1	-69.64
CCn1c(C)nnc1CN(C)C1CCN(Cc2nccn2C)C1 (stereo not shown)	-31.52
CC(C)C(=O)NC1CCCc2nc(N3CCOCC3)ncc21 (stereo not shown)	-5.634
[H][C@]12CC[C@]([H])(CN(C(C)=O)C1)N(Cc1ccc(Cn3cccn3)cc1)C2	12.69
O=C1CCCC2=C1C(c1cc(Cl)ccc1F)Nc1nonc1N2 (stereo not shown)	44.54
N#CCCN(CC1CCOC1)S(=O)(=O)c1c(F)cccc1Cl (stereo not shown)	18.41
CCc1nc(CC(=O)NCC(Cc2ccc(F)cc2)C(N)=O)cs1 (stereo not shown)	-5.037
O=C(O)c1ccccc1-n1cc(CN2CCOC(c3cc[nH]n3)C2)cn1 (stereo not shown)	-9.44
CN(Cc1cnccn1)C(=O)Nc1cc(F)cc(N2CCCC2)c1	2.432
[H][C@]12CCCCN1CCC[C@@]2(O)CN1CCC(O)(Cn2ccnc2)CC1	-27.46
Cc1nc2c(c(NCCN3CCOCC3)n1)CCN(C)C2	0.2071
Cc1cc(=O)n(CC(=O)Nc2ccc(Cl)cc2)nc1C	13.93
CC(C)N1CCCc2sc(C(=O)NC3CC3)nc21	10.63
CC(NC(=O)NCCCn1cccn1)c1ccncc1 (stereo not shown)	-21.79
O=C(O)C(F)(F)F.O=C1Nc2ccccc2C12CCN(Cc1nccs1)CC2	-8.416
Cc1ccc2c(c1)C(=O)NCC1(CCN(C(=O)c3ccnn3C)CC1)O2	-65.07
Cc1noc(C)c1CNC(=O)c1ccc(NC2CC2)nc1	-17.71
Cc1cc(CN2CCc3c(CNc4ncccn4)cncc3C2)oc1C.Cl.Cl	0.2979
CC1COCCN1Cc1nc(-c2ccc(F)cc2)no1 (stereo not shown)	-2.778
O=C1CC[C@@H](CN(Cc2ccncc2)Cc2nc(-c3cccs3)no2)N1	-23.52
Cl.O=C(N1CCCC1)N1CCc2c(CNc3ncccn3)cncc2C1	19.65
Cc1cc(C)c(C#N)c(NCCn2cnnc2C(C)C)n1	6.893
CC(C)CNC(=O)c1nc2c(s1)CCN(C(=O)c1ccc(Cl)cc1)CC2	45.48
COc1ccc(C2CNCCN2C(=O)c2nccc3ccccc23)cc1 (stereo not shown)	7.216
Cc1cnn(C2CCCN(C(=O)c3ccc(-n4ccnc4)cc3)C2)c1 (stereo not shown)	-52.92
CN(C)c1nccc(N(C)Cc2ncnn2C)n1	-5.021
CCC(CN1CCCC1)NC(=O)C1(c2cccc(F)c2)CC1.O=C(O)CC(O)(CC(=O)O)C(=O)O (stereo not shown)	35.4
Cc1occc1C(=O)N1CCCN(Cc2cnn(C(C)C)c2)CC1	-9.251
CCCc1nnsc1C(=O)NCC(O)c1ccc(SC)cc1 (stereo not shown)	15.21
Cc1cnc2[nH]c(C(F)(F)F)c(CN3CCSCC3)c2c1	29.74
CN(C)c1nc2c(c(=O)[nH]1)CCN(C(=O)c1c[nH]c(=O)c(Cl)c1)C2	21.62
OCC(CO)N1CCCC(Cc2ccnc(Nc3ccccn3)c2)C1 (stereo not shown)	10.34
O=S(=O)(Nc1cnc(N2CCOCC2)nc1)c1ccc(C(F)(F)F)cc1	57.68
COc1cc2c(c(OC)c1OC)CCN(CCn1nc(C)cc1C)CC2	15.39
CCNC(=O)NC[C@H]1Cn2c(-c3ccccc3)cnc2CO1	4.761
Cn1cc(CCC(=O)N2CCCC(n3cncn3)C2)cn1 (stereo not shown)	-36.01
NC(=O)C1CCN(CCc2ccc(NCc3cccnc3)cc2)CC1	-5.168
CNc1ncc(C(=O)N2CCOC(C(=O)Nc3ccccc3)C2)cn1 (stereo not shown)	25.54
CCCn1nccc1C(=O)N1CCCC(C(=O)CCc2ccccc2)C1 (stereo not shown)	9.373
O=C(Cc1ccsc1)N1CCC[C@@H]1Cn1c(=O)oc2ccccc21	44.18
Cc1cc(C)n(-c2cncc(N3CCN(C(=O)CN(C)C)CC3)n2)n1	-4.289
O=C(NCCCF)N1CCC(n2ccc(C(F)(F)F)n2)CC1	12.77
Cc1ncc(C(=O)Nc2cncnc2N(C)C)c(Cl)c1Cl	12.52

Once more, the final 5:

| SMILES | Percent Effect |
|---|---|
| `CCCn1nccc1C(=O)N1CCCC(C(=O)CCc2ccccc2)C1` (stereo not shown) | 9.373 |
| `O=C(Cc1ccsc1)N1CCC[C@@H]1Cn1c(=O)oc2ccccc21` | 44.18 |
| `Cc1cc(C)n(-c2cncc(N3CCN(C(=O)CN(C)C)CC3)n2)n1` | -4.289 |
| `O=C(NCCCF)N1CCC(n2ccc(C(F)(F)F)n2)CC1` | 12.77 |
| `Cc1ncc(C(=O)Nc2cncnc2N(C)C)c(Cl)c1Cl` | 12.52 |

From ChEMBL document CHEMBL3988442, “University of Dundee, Small-Polar-MMV Screening Library” (2021).